Laboratory results published in article doi:10.1101/2022.12.30.522308 (bioRxiv, 2022).
Results are given in words; binding and its absence hold for the method and conditions named. Some entries that bind do so weakly or less than the wild type.

Tests used:
[1] = target: T1, extracellular domain of human IL-9 receptor α (hIL-9Rα) (human) (UniProt Q01113); assay: ITC
T1 sequence: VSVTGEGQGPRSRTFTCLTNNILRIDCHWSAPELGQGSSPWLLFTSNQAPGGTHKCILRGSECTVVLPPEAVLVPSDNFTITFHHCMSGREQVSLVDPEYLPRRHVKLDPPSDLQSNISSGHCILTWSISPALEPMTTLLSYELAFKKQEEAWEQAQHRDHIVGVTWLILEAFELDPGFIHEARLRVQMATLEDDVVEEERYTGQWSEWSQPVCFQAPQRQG

[2] = target: non-glycosylated binary hIL-9:hIL-9Rα complex (human) (UniProt P15248+Q01113); assay: SEC

B1: trimmed extracellular domain of human common gamma chain (hγc, residues 56-254), produced in Sf9 cells (receptor, UniProt P31785-1 56-254, looked up)
chain: PLPEVQCFVFNVEYMNCTWNSSSEPQPTNLTLHYWYKNSDNDKVQKCSHYLFSEEITSGCQLQKKEIHLYQTFVVQLQDPREPRRQATQMLKLQNLVIPWAPENLTLHKLSESQLELNWNNRFLNHCLEHLVQYRTDWDHSWTEQSVDYRHKFSLPSVDGQKRYTFRVRSRFNPLCGSAQHWSEWSHPIHWGSNTSKEN
In the case of B1, the binding [1] is reported as “no binding” and the binding [2] is reported as “binds weakly”.
